According to patent US6835398B2, “Method of administering high-dose, oral magnesium for treatment of chronic pain syndrome of erythromelalgia” (priority 2001, dated 2004):
For at least one compound, name, drawing or mass did not settle the structure.

Tested on: patient with CRPS1 / erythromelalgia (EM)
Experiment: Case study patient #1 (CRPS1/EM): pain and symptom response
Format: in vivo, human

COC(=O)C1=C(C)NC(C)=C(C(=O)OC)C1c1ccccc1[N+](=O)[O-] [nifedipine]
pain and symptom response: the first, albeit limited, improvement
